Assay results as given in the supplement of paper PMC12889115.
This is one part of the list. These are raw signals, not scaled to a control.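 In the initial screen, polymyxin B was used at a concentration that permeabilizes Salmonella's outer membrane but not its inner membrane. Maximum growth was set by DMSO wells with or without polymyxin B. Since plates varied, data were ranked per plate, and compounds giving the lowest OD600 advanced as hits.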

Tested on: Salmonella enterica serovar Typhimurium SL1344
Assay: bacterial growth OD600 after 18 h with compound and polymyxin B; higher = more bacterial growth (less inhibition)
Conditions: 50 µM, Mueller-Hinton broth

Structure (SMILES) | bacterial growth OD600 (polymyxin B 1 µg/mL) | bacterial growth OD600 (polymyxin B 0.75 µg/mL)
O=C(CC1CC1)NC1CCCN(Cc2ccccc2F)C1 (stereo unspecified) | 0.963 | 
CC(C)OCCCN1C(=O)CCC1CCNCc1cc2c(cc1Cl)OCO2 (stereo unspecified) |  | 0.934
C=C(C)CN(CC)C(=O)CC1C(=O)NCCN1Cc1c(F)cccc1Cl (stereo unspecified) | 0.842 | 
CSCCC(=O)N1CCCC(CCC(=O)NCc2ccccc2Cl)C1 (stereo unspecified) | 1.22 | 
CC(C)CN(C)C(=O)C1CCCN(C2CCN(C(=O)C3CC3)CC2)C1 (stereo unspecified) |  | 0.783
COc1ccc(C(=O)Nc2ccnn2C2CCN(C(=O)CCc3ccccc3)CC2)cc1 | 0.86 | 
COc1ccc(-c2ccccc2NC(=O)C2CCCN2Cc2c[nH]c(C)n2)cc1 (stereo unspecified) |  | 0.844
COC(=O)CCCNC(=O)CCC1(Cc2ccc(OC)c3ccccc23)CCC(=O)N1 (stereo unspecified) |  | 0.853
Cc1nccn1-c1ccc(NC(=O)C2CCCN2C(=O)CC2=CCCCC2)cc1 (stereo unspecified) |  | 0.835
CCCCNC(=O)N1C[C@H]2OC(=O)N(Cc3ccc(OC)c(OC)c3)[C@H]2C1 |  | 0.819
Cc1nc(N2CCCC(NCCC3=CC[C@H]4C[C@@H]3C4(C)C)CC2)nc2cc(S(C)(=O)=O)ccc12 (stereo partly specified) |  | 0.024
CN(Cc1nc(-c2ccccc2)no1)CC1CCN(Cc2ccccc2)CC1 |  | 0.548
O=C(Nc1ccccc1Oc1cccnc1)C1CCCN1C1CCC1 (stereo unspecified) |  | 0.749
CCN(C)C(=O)C1CCC(=O)N(CCc2ccc(OC)cc2)C1 (stereo unspecified) | 1.01 | 
Cc1oc(-c2cccc(NC(=O)C3CCCN(C)C3)c2)nc1CNC(=O)c1cc(C(C)C)on1 (stereo unspecified) |  | 0.864
COc1ccc(C(=O)N2CCCC2)c(OC2CCN(C3CSCCSC3)CC2)c1 | 1.08 | 

Looked up one by one from the entries so far (two):
Structure (SMILES) | bacterial growth OD600 (polymyxin B 1 µg/mL) | bacterial growth OD600 (polymyxin B 0.75 µg/mL)
CC(C)OCCCN1C(=O)CCC1CCNCc1cc2c(cc1Cl)OCO2 (stereo unspecified) |  | 0.934
O=C(Nc1ccccc1Oc1cccnc1)C1CCCN1C1CCC1 (stereo unspecified) |  | 0.749

Next part

Structure (SMILES) | bacterial growth OD600 (polymyxin B 1 µg/mL) | bacterial growth OD600 (polymyxin B 0.75 µg/mL)
CN(Cc1cccnc1)Cc1cn(Cc2ccccc2)nc1-c1ccc2c(c1)OCO2 | 0.028 | 
CCOC(=O)N1CCC(NC(=O)C2CC23CCN(C(=O)Cc2cccc(C(F)(F)F)c2)CC3)CC1 (stereo unspecified) |  | 0.955
Cc1csc(CNC(=O)CC(c2cccc(O)c2)c2ccccc2Cl)n1 (stereo unspecified) | 0.74 | 
Cn1cc(CN2CCCN(C=O)CC2)c(-c2ccc(C3CCCCC3)cc2)n1 | 0.467 | 
O=C(C1CCN(c2nc(-c3ccccc3)nc3c2CCC3)CC1)N1CCSCC1 | 0.016 | 
COc1ccc(-c2n[nH]cc2CNCCc2ccc(Cl)cc2)cc1F | 0.797 | 
O=C(c1ccc2c3c(cccc13)CC2)C1CCCN(C(=O)c2cnn3cccnc23)C1 (stereo unspecified) | 0.795 | 
CCOC(=O)N1CCN(C(=O)c2cn(C3CCCCC3)nn2)CC1 | 0.845 | 
CC(C)c1nc(CNC(=O)c2cc(COc3c(F)cccc3F)on2)cs1 |  | 0.383
O=C(Cn1cc(NC(=O)CCC(=O)c2ccccc2)cn1)NCCCn1ncc2ccccc21 |  | 0.84
C1CCC(Nc2nc3nonc3nc2N2CCN(C3CCCC3)CC2)C1 | 0.892 | 
CC(=O)NCCC1CCCCN1Cc1nc(-c2ccccn2)no1 (stereo unspecified) | 0.83 | 
COc1ccc(OC)c(-c2cc(Cl)c3c(c2)CC(CNC(=O)c2cccnc2C)O3)c1 (stereo unspecified) |  | 0.002
COc1ccc(-c2noc(CN(C)Cc3ccc(F)cc3)n2)c(OC)c1OC | 0.758 | 
Cn1ccnc1CN1C[C@H]2OC(=O)N(CCc3ccc(F)cc3)[C@H]2C1 |  | 0.809
